Source: patent US10092648B2 (Zealand Pharma A/S, priority 2006, dated 2018)

Assays:
[1] = general procedure: Fmoc solid-phase peptide synthesis; TentaGel S RAM, TentaGel S RAM-Lys(Boc)Fmoc, TentaGel S PHB, TentaGel S PHB Lys(Boc)Fmoc (0.22-0.31 mmol/g); preformed Fmoc-protected HOBt esters (3 eq.)
[2] = general procedure: Fmoc solid-phase peptide synthesis; TentaGel S RAM; preformed Fmoc-protected HOBt esters (3 eq.); conditions: whole synthesis, trifluoroacetate salt; for isolated mass: scale 0.2 mmol/g, 1 g; for final purity (method not given): scale of the general procedure 1 g resin, 0.22-0.31 mmol/g, run 2
[3] = general procedure: Fmoc solid-phase peptide synthesis; TentaGel S RAM-Lys(Boc)-Fmoc; preformed Fmoc-protected HOBt esters (3 eq.); conditions: whole synthesis, scale 0.24 mmol/g, 1 g, trifluoroacetate salt
[4] = whole synthesis, scale of the general procedure 1 g resin, 0.22-0.31 mmol/g, trifluoroacetate salt
[5] = whole synthesis, scale of the general procedure 1 g resin, 0.22-0.31 mmol/g, trifluoroacetate salt, run 1

Row | Substance | final purity (method not given) [1, 4] | other results
1 | H-HGEGSFSDELATI LEALAASDFIAWLIATKITDKKKKKK-NH2 | 93% | 
2 | H-HGEGSFSDELATILEALAAADFIAWLIATKITD-NH2 |  | isolated mass [2]: 413 mg; final purity (method not given) [2]: better than 93%; final purity (method not given) ([1]; purification step, acetate salt): better than 90%; final purity (method not given) ([1]; purification step, chloride salt): better than 90%; final purity (method not given) [1, 5]: 93%
3 | H-HGEGSFSDELATILEALAAADFIAWLIATKITDKKKKKK-NH2 | 97% | final purity (method not given) [3]: better than 90%
4 | H-HGEGSFSDELATILEALAAADFIAWLISTKITD-NH2 | 92% | 
5 | H-HGEGSFSDELATILEALAAADFIAWLISTKITDKKKKKK-NH2 | 98% | 
6 | H-HGEGSFSDELATILEALAAADFISWLIATKITD-NH2 | 97% | 
7 | H-HGEGSFSDELATILEALAAADFISWLIATKITDKKKKKK-NH2 | 93% | 
8 | H-HGEGSFSDELATILEALAASDFIAWLIATKITD-NH2 | 98% | 
9 | H-HGEGSFSDELATILEALAASDFISWLISTKITD-NH2 |  | isolated mass [2]: 132 mg; final purity (method not given) [2]: better than 91%; final purity (method not given) [1, 5]: 91%
10 | H-HGEGSFSDELATILEALAASDFISWLISTKITDKKKKKK-NH2 | 97% | final purity (method not given) [3]: better than 90%
11 | H-HGEGSFSDELATILESLAAADFIAWLIATKITD-NH2 | 91% | 
12 | H-HGEGSFSDELATILESLAAADFIAWLIATKITDKKKKKK-NH2 | 98% | 
13 | H-HGEGSFSDELATILESLAAADFISWLIATKITD-NH2 | 91% | 
14 | H-HGEGSFSDELATILESLAAADFISWLIATKITDKKKKKK-NH2 | 95% | 
15 | H-HGEGSFSDELATILESLAASDFISWLISTKITD-NH2 | 80% | 
16 | H-HGEGSFSDELATILESLAASDFISWLISTKITDKKKKKK-NH2 | 89% | 
17 | H-HGEGSFSDELETILEELAAEDFIEWLIETKITD-NH2 | 88% | 
18 | H-HGEGSFSDELETILEELAAEDFIEWLIETKITDKKKKKK-NH2 | 93% | 
19 | H-HGEGSFSDELFTILEFLAASDFISWLISTKITD-NH2 | 75% | 
20 | H-HGEGSFSDELFTILEFLAASDFISWLISTKITDKKKKKK-NH2 | 93% | 

Row | Substance | final purity (method not given) [1, 4] | other results
21 | H-HGEGSFSDELKTILEKLAAKDFIKWLIKTKITDKKKKKK-NH2 | 96% | 
22 | H-HGEGSFSDELKTILESLAAADFIEWLIQTKITD-NH2 | 94% | 
23 | H-HGEGSFSDELKTILESLAAADFIEWLIQTKITDKKKKKK-NH2 | 96% | 
24 | H-HGEGSFSDELLTILELLAAADFIAWLIATKITDKKKKKK-NH2 | 88% | 
25 | H-HGEGSFSDELLTILELLAALDFIAWLIATKITDKKKKKK-NH2 | 88% | 
26 | H-HGEGSFSDELLTILELLAALDFILWLILTKITDKKKKKK-NH2 | 78% | 
27 | H-HGEGSFSDELLTILELLAASDFISWLISTKITD-NH2 | 84% | 
28 | H-HGEGSFSDELLTILELLAASDFISWLISTKITDKKKKKK-NH2 | 90% | 
29 | H-HGEGSFSDELNTILESLAARDFISWLISTKITDKKKKKK-NH2 | 96% | 
30 | H-HGEGSFSDELNTILESLAASDFISWLISTKITD-NH2 | 74% | 
31 | H-HGEGSFSDELNTILESLAASDFISWLISTKITDKKKKKK-NH2 | 94% | 
32 | H-HGEGSFSDELSTILEALAAADFIAWLIATKITD-NH2 | 94% | 
33 | H-HGEGSFSDELSTILEALAAADFIAWLIATKITDKKKKKK-NH2 | 92% | 
34 | H-HGEGSFSDELSTILEALAASDFISWLISTKITD-NH2 | 89% | 
35 | H-HGEGSFSDELSTILEALAASDFISWLISTKITDKKKKKK-NH2 | 95% | 
36 | H-HGEGSFSDELSTILESLAAADFIAWLIATKITD-NH2 | 96% | 
37 | H-HGEGSFSDELSTILESLAAADFIAWLIATKITDKKKKKK-NH2 | 93% | 
38 | H-HGEGSFSDELSTILESLAASDFISWLISTKITD-NH2 | 62% | 
39 | H-HGEGSFSDELSTILESLAASDFISWLISTKITDKKKKKK-NH2 | 96% | 
40 | H-HGEGSFSSELSTILDALAARDFIAWLIATKITDK-OH | 88% | 
